At least one compound was matched to its structure with a doubt left.
System: cardiac myocytes
Test: Intracellular and extracellular cAMP levels in forskolin-treated cardiac myocytes
Format: cell-based, rat
Settings: 10 μM, 1 hour, shLuc treated cells

C=C[C@@]1(C)CC(=O)[C@]2(O)[C@@]3(C)[C@@H](O)CCC(C)(C)[C@@H]3[C@H](O)[C@H](OC(C)=O)[C@@]2(C)O1 [Forskolin]
extracellular level of cAMP: increased
intracellular level of cAMP: increased

Reference: patent US8420594B2, “Inhibitors of MRP4 and agents stimulating MRP4 activity for the treatment of cardiac disorders” (INSERM (Institute de la Sante et de la Recherche Medicale), priority 2008, dated 2013)
